Data on one substance can be found in paper PMC5132261.

By UniProt entry, the sequences of proteins in these tests, tags left out.
UniProt Q9JKS6: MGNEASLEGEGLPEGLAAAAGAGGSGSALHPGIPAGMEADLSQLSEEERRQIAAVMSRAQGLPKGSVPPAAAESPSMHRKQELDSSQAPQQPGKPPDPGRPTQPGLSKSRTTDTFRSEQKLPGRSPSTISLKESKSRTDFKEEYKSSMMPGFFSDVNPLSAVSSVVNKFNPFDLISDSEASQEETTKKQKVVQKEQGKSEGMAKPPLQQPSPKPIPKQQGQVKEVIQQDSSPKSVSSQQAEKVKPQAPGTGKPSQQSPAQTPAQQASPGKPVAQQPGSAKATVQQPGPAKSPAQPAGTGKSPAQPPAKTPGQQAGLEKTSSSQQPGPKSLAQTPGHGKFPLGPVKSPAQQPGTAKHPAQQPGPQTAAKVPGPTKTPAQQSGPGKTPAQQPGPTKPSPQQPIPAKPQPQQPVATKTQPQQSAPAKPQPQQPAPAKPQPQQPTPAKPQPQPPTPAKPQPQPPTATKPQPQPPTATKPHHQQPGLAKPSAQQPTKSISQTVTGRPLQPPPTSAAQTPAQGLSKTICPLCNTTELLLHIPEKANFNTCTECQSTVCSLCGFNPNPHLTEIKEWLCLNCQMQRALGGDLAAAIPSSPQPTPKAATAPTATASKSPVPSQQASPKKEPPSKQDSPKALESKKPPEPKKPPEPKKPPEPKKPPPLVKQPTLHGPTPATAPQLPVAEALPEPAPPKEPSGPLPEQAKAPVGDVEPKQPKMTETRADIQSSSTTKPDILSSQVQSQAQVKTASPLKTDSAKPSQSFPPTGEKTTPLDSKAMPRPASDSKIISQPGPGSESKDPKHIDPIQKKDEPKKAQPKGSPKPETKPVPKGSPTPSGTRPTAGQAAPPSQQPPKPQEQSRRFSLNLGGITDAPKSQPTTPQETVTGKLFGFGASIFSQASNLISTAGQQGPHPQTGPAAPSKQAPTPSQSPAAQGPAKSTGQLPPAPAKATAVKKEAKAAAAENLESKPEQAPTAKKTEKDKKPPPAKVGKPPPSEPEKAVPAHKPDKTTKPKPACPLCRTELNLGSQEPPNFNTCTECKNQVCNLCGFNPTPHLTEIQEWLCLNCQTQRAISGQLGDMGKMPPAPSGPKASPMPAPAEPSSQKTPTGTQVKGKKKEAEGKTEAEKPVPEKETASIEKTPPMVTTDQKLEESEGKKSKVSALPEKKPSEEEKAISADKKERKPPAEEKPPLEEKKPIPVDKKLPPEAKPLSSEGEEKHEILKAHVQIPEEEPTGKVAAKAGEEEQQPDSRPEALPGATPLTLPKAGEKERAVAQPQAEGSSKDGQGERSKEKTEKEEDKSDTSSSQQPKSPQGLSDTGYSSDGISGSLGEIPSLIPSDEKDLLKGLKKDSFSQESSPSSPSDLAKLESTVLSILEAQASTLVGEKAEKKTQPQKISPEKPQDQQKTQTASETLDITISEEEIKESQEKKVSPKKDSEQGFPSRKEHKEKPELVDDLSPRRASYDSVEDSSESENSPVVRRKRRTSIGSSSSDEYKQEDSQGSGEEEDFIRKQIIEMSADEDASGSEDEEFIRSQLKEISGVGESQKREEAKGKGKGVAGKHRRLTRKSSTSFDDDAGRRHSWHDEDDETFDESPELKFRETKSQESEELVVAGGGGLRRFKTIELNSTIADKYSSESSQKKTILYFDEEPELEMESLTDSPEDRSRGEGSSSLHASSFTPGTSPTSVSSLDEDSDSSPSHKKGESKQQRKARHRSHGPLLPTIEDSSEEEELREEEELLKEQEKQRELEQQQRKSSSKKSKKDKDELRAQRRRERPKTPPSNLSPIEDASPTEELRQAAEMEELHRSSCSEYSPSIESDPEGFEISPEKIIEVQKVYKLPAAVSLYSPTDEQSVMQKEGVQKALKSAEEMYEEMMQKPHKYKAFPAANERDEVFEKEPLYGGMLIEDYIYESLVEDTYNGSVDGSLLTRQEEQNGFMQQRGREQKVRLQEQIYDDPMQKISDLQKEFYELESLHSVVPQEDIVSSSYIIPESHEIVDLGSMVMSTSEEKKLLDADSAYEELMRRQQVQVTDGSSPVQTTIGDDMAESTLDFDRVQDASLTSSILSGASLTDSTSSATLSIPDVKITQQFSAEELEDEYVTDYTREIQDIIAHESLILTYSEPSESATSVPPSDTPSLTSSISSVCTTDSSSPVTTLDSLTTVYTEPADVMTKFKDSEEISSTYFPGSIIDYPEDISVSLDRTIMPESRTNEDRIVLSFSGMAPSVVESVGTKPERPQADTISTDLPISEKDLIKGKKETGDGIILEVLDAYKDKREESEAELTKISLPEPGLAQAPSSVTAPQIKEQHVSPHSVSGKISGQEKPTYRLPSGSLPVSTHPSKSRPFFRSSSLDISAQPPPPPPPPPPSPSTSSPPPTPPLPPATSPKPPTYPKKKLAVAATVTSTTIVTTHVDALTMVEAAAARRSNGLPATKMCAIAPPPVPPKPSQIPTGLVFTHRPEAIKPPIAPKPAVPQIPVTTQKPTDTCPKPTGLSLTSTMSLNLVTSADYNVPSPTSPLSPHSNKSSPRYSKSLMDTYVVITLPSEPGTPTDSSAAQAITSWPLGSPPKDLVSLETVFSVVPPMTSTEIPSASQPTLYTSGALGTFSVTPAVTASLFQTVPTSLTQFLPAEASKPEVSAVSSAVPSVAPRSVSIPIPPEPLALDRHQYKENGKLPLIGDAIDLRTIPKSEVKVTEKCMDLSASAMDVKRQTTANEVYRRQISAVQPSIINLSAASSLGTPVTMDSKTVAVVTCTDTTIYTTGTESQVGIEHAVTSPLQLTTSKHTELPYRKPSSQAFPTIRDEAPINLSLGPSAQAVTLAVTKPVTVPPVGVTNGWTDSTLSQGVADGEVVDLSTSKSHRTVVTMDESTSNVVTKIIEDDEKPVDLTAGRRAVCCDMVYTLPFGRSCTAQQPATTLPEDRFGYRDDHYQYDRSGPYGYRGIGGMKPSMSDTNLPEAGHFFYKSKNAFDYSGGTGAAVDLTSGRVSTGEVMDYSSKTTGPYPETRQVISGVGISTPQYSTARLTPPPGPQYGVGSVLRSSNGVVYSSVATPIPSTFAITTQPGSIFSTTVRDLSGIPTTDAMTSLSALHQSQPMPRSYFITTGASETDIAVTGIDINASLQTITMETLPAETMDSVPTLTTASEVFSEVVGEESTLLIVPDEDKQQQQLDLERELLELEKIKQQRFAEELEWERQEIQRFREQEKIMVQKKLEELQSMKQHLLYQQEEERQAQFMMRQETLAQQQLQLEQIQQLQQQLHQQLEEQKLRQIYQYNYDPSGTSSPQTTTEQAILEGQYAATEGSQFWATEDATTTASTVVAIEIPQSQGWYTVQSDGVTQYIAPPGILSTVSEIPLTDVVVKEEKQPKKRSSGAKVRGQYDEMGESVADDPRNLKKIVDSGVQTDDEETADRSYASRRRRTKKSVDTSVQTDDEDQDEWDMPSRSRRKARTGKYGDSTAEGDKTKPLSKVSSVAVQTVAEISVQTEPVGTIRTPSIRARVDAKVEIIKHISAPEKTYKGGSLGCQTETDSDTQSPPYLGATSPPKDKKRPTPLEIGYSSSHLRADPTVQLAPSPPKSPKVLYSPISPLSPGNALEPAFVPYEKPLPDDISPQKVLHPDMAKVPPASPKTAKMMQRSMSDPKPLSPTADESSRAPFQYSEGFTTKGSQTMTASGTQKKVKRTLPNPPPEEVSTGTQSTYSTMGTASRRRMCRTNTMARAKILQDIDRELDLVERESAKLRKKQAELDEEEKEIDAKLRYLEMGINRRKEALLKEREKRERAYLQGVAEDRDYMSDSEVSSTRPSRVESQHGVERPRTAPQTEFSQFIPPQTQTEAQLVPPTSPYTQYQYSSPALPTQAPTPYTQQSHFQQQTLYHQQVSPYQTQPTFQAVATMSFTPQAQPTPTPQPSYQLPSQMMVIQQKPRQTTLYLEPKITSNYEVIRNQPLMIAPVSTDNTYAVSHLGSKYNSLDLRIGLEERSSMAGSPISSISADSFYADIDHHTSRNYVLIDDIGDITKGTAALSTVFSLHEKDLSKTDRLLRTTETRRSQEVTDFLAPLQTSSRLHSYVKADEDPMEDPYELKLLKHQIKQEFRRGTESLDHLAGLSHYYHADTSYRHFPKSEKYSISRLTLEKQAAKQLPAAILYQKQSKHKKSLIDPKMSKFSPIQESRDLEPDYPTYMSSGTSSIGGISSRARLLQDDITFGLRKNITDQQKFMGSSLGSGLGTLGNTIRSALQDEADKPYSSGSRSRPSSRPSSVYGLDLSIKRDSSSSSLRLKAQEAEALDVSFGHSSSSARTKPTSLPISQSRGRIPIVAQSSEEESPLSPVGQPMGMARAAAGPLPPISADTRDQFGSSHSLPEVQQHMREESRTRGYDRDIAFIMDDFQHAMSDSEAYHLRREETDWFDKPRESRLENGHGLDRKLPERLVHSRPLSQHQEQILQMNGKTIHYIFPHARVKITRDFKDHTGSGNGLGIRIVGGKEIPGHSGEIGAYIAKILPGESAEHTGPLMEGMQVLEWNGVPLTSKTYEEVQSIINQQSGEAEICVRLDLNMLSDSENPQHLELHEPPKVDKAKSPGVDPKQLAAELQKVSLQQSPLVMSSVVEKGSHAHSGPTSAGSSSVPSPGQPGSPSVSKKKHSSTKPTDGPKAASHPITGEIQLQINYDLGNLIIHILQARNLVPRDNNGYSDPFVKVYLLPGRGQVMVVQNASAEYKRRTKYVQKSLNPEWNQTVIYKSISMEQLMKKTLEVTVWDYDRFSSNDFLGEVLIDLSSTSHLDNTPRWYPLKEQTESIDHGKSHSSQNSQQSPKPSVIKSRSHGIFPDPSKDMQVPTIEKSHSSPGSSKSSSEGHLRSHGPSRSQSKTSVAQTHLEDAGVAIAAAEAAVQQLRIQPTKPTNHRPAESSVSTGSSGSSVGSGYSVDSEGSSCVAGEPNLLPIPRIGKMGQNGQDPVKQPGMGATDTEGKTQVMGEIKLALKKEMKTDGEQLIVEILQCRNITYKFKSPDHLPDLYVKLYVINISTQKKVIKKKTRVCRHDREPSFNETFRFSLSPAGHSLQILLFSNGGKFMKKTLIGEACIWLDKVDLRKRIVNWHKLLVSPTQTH

This assay concerns the target Piccolo (rat (endogenous in brain)) (UniProt Q9JKS6). As to the kind of experiment: affinity purification with mass spectrometry; eluates of the anti-Piccolo IP and of the control IgG IP (two IP experiments) from solubilised light membrane fraction of immature rat brain, analysed by MudPIT; positives: present in the anti-Piccolo IP, absent from IgG.

Results are given in words; binding and its absence hold for the method and conditions named. In cells and extracts the contact can be indirect. Here binding means that the protein was enriched with, or labelled near, the bait; the list need not be complete.

As for Bassoon (from UniProt O88778 1-3938), the binding result was “binds”.
